The results in this text go back to article PMC4269415 (PLoS ONE, 2014).

A short description of the first data set: peptide made by a vendor (peptide synthesis; Rink amide resin). Particulars: whole synthesis, purity and molecular weight confirmed by MALDI-TOF MS, pone-0114614-g003.
For “GGLRSLGRKILRAWKKYGPIIVPIIRI-NH2 [D-BMAP-28-NH2]”, the “final HPLC purity” value was found to be 95.35%.

Take “GGLRSLGRKILRAWKKYGPIIVPIIRI-NH2 [RI-BMAP-28-NH2]”: the “final HPLC purity” value turned out to be 95.85%.

With “GGLRSLGRKILRAWKKYGPIIVPIIRI-NH2 [L-BMAP-28-NH2]”, the “final HPLC purity” value amounted to 95.64%.

A further data set is described as follows: peptide made by a vendor. Particulars: whole synthesis, purity and molecular weight confirmed by MALDI-TOF MS, pone-0114614-g001.
As to “GGLRSLGRKILRAWKKYGPIIVPIIRIG [D-BMAP-28]”, the “final HPLC purity” value turned out to be 96.67%.

Take “GGLRSLGRKILRAWKKYGPIIVPIIRIG [RI-BMAP-28]”: the “final HPLC purity” value came to 95.62%.

With “GGLRSLGRKILRAWKKYGPIIVPIIRIG [L-BMAP-28]”, the “final HPLC purity” value amounted to 95.61%.
